Assay results published in the supplement of paper PMC7840683.

Test system: HepaRG
Test: LDH release cytotoxicity, % of total lysis control; higher = more cytotoxic
Conditions: 48 h
Method in brief: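 The CytoTox-ONE kit was used to read LDH in 50 µL spent medium as resorufin fluorescence on a Tecan Safire, with 0.1% Triton X added to total lysis wells. Beforehand, single-lot HepaRG cells on collagen I-coated 96-well plates had been exposed in duplicate for 48 h to eight-point half-log series (top 100 µM) in serum-free induction medium containing 0.5% DMSO. Percent cytotoxicity was normalized against on-plate vehicle and total lysis controls and averaged over duplicates.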

CCCCCCCCc1ccc(O)cc1 [4-Octylphenol]
Conditions	LDH release cytotoxicity [%]
0.03162 µM	-2.08
0.1 µM	-0.779
0.3162278 µM	-2.32
1 µM	-2.45
3.16228 µM	-1.84
10 µM	-1.93
31.6228 µM	-1.5
100 µM	11.3
